Results reported in publication PMC12431657, “Discovery and mechanistic insights of dibenzoylmethane as a broad spectrum inhibitor of coronavirus” (PLOS Pathogens, 2025).
Where a name gives a salt, the structure may show the parent alone. Screen size: about 3,300 compounds; about 60 (2%) showed an effect of 50% or more. The list shows a part of the results.

Test system: HCoV-OC43
Set-up: species or system RD; HTS, protection from HCoV-OC43 induced cell death, luminescent cell viability (CellCounting-Lite 2.0), inhibition rate
Conditions: 24 h post infection, 1 h compound pre-incubation; 10 µM; inhibitor

| SMILES | OC43 Inhibition rate |
| --- | --- |
| CN1c2ccccc2C(=O)N2CCc3c([nH]c4ccccc34)[C@@H]21 [Evodiamine] | 2% |
| COc1ccc(-c2cc(=O)c3c(O)cc(O[C@@H]4O[C@H](CO)[C@@H](O)[C@H](O)[C@H]4O)cc3o2)cc1O [Diosmetin-7-O-β-D-glucopyranoside] | -0.5% |
| CCCCCCCCCCCCCCCCCCCCCCO [1-Docosanol] | -2.1% |
| COc1ccc(O)cc1 [Mequinol] | -0.4% |
| CC(C)=CCC[C@](C)(O[C@@H]1O[C@H](CO[C@@H]2OC[C@H](O)[C@H](O)[C@H]2O)[C@@H](O)[C@H](O)[C@H]1O)[C@H]1CC[C@]2(C)[C@@H]1[C@H](O)C[C@@H]1[C@@]3(C)CC[C@H](O)C(C)(C)[C@@H]3[C@@H](O)C[C@]12C [Ginsenoside F3] | 2.3% |
| C=C1C[C@@]23CC[C@H]4[C@@](C)(CCC[C@@]4(C)C(=O)O[C@@H]4O[C@H](CO)[C@@H](O)[C@H](O[C@@H]5O[C@H](CO)[C@@H](O)[C@H](O)[C@H]5O)[C@H]4O[C@@H]4O[C@H](CO)[C@@H](O)[C@H](O)[C@H]4O)[C@@H]2CC[C@]1(O[C@@H]1O[C@H](CO)[C@@H](O)[C@H](O[C@@H]2O[C@H](CO)[C@@H](O)[C@H](O)[C@H]2O)[C@H]1O[C@@H]1O[C@H](CO)[C@@H](O)[C@H](O)[C@H]1O)C3 [Rebaudioside M] | 0.5% |
| O=c1ccoc2cc(O)ccc12 [7-Hydroxy-4H-chromen-4-one] | 0% |
| C[C@@H]1O[C@@H](O[C@@H]2C(=O)c3c(O)cc(O)cc3O[C@@H]2c2ccc(O)c(O)c2)[C@H](O)[C@H](O)[C@H]1O [Isoastilbin] | 4.2% |
| CC1=C(C(=O)Nc2ccccc2)SCCO1 [Carboxin] | -1.9% |
| CC1(C)O[C@H]2CC(=O)OC[C@]23[C@H]2CC[C@@]4(C)[C@H](c5ccoc5)OC(=O)[C@H]5O[C@]54[C@]2(C)C(=O)C[C@@H]13 [Limonin] | -0.9% |
| COc1ccc(C(C)=O)c(O[C@@H]2O[C@H](CO[C@@H]3OC[C@H](O)[C@H](O)[C@H]3O)[C@@H](O)[C@H](O)[C@H]2O)c1 [Apiopaeonoside] | -0.7% |
| CC1=CCC(=O)O1 [α-Angelica lactone] | -1% |
| O=C(O)c1cn[nH]c1 [4-Carboxypyrazole] | 0.1% |
| OC[C@H]1NC[C@H](O)[C@@H](O)[C@@H]1O [1-Deoxynojirimycin] | -2.5% |
| C=C(C)[C@@H](O)COc1c2ccoc2cc2oc(=O)ccc12 [Pangelin] | 2.9% |
| COC(=O)C1=CO[C@@H](O[C@@H]2O[C@H](CO)[C@@H](O)[C@H](O)[C@H]2O)[C@@H]2C(CO)=CC[C@H]12 [Geniposide] | 0% |

| SMILES | OC43 Inhibition rate |
| --- | --- |
| CC(=O)OC/C=C(\C)CCC=C(C)C [Geranyl acetate] | -0.3% |
| C[C@H](CCC(=O)NCCS(=O)(=O)O)[C@H]1CC[C@H]2[C@@H]3C[C@H](O)[C@@H]4C[C@H](O)CC[C@]4(C)[C@H]3CC[C@]12C [Taurohyodeoxycholic acid] | -1.1% |
| C[C@H](CCCC(C)(C)O)[C@H]1CC[C@H]2[C@@H]3CC=C4C[C@@H](O)CC[C@]4(C)[C@H]3CC[C@]12C [25-Hydroxycholesterol] | -3.3% |
| CC(C)CCC[C@@H](C)[C@H]1CC[C@H]2[C@@H]3[C@H](O)C=C4C[C@@H](O)CC[C@]4(C)[C@H]3CC[C@]12C [7α-Hydroxycholesterol] | 8.7% |
| CC(=O)N[C@@H](Cc1cnc[nH]1)C(=O)O [N-Acetyl-L-histidine (monohydrate)] | 2.4% |
| O=C1C[C@@H](c2ccc(O)c(O)c2)Oc2cc(O)cc(O)c21 [Eriodictyol] | 0.2% |
| COc1cc(/C=C/C(=O)O[C@H]2[C@H](O)[C@@H](CO)O[C@@]2(CO)O[C@H]2O[C@H](CO)[C@@H](O)[C@H](O)[C@H]2O)ccc1O [Sibiricose A5] | -0.2% |
| CN[C@@H]1[C@H](O)[C@H](NC)[C@H]2O[C@@]3(O)C(=O)C[C@@H](C)O[C@H]3O[C@@H]2[C@H]1O [Spectinomycin (dihydrochloride)] | 20.6% |
| C[C@@H]1C[C@@H]([C@@H](O)C(C)(C)O)O[C@H]2C[C@@]3(C)C(=C12)C[C@H](O)[C@H]1[C@@]2(C)CCC(=O)C(C)(C)[C@@H]2CC[C@@]13C [Alisol F] | -0.1% |
| C[C@H](CC[C@@H](O[C@@H]1O[C@H](CO)[C@@H](O)[C@H](O)[C@H]1O[C@@H]1O[C@H](CO)[C@@H](O)[C@H](O)[C@H]1O)C(C)(C)O)[C@H]1CC[C@@]2(C)[C@H]3CC=C4[C@@H](CC[C@H](O[C@@H]5O[C@H](CO[C@@H]6O[C@H](CO)[C@@H](O)[C@H](O)[C@H]6O)[C@@H](O)[C@H](O)[C@H]5O)C4(C)C)[C@]3(C)[C@H](O)C[C@]12C [Mogroside IV] | -0.6% |
| CC1(C)[C@@H](O[C@@H]2O[C@H](C(=O)O)[C@@H](O)[C@H](O)[C@H]2O[C@@H]2O[C@H](C(=O)O)[C@@H](O)[C@H](O)[C@H]2O)CC[C@]2(C)[C@H]3C(=O)C=C4[C@@H]5C[C@](C)(C(=O)O)CC[C@]5(C)CC[C@@]4(C)[C@]3(C)CC[C@@H]12 [Licorice-saponin H2] | 0.5% |
| C/C(=C\CO)CCC[C@H](C)CCC[C@H](C)CCCC(C)C [Phytol] | 0% |
| O=c1[nH]c2ccccc2c(-c2cccc(O)c2)c1O [Viridicatol] | 1% |
| O=c1c(-c2ccc(O)cc2)coc2c([C@@H]3O[C@H](CO[C@@H]4OC[C@@H](O)[C@H](O)[C@H]4O)[C@@H](O)[C@H](O)[C@H]3O)c(O)ccc12 [Puerarin 6''-O-Xyloside] | -0.1% |
| CCc1c2c(nc3ccc(O)cc13)-c1cc3c(c(=O)n1C2)COC(=O)[C@]3(O)CC [SN-38] | -4.8% |
| CC(=O)OC/C1=C/C[C@H]2[C@@H](/C=C(\C)C(=O)[C@@]3(OC(C)=O)C[C@H](C)[C@H](OC(=O)c4ccccc4)[C@@H]3[C@H]1OC(C)=O)C2(C)C [Euphorbia factor L7b] | 8.6% |

Taken from above.
OC43 Inhibition rate with C/C(=C\CO)CCC[C@H](C)CCC[C@H](C)CCCC(C)C [Phytol] is entered as 0%
OC43 Inhibition rate with O=C1C[C@@H](c2ccc(O)c(O)c2)Oc2cc(O)cc(O)c21 [Eriodictyol] is entered as 0.2%
